These are yes or no findings as the source states them, for the method shown. Binding seen in cells or lysates may run through a third protein. Some binding calls cover weakened binding; strength is not graded here. Tags and fused reporters may be left off the sequences shown.
Columns and labels:
[1] = biological target: His-Moesin (wild type) (UniProt P26038); assay: co-IP; MCF7 (and MDA-MB-231) cells transfected 36 h, MG132 6 h; whole-cell lysates immunoprecipitated with anti-His antibody, immunoblot
[2] = biological target: His-Moesin (wild type) (UniProt P26038); assay: pull-down; MCF7 cells transfected 36 h, 5 µM MG132 6 h; His-Moesin pulled down with Ni-NTA beads from whole-cell extracts, immunoblot (Fig. 5I, Fig. 6F)

By UniProt entry, the sequences of proteins in these tests, tags left out.
UniProt P26038: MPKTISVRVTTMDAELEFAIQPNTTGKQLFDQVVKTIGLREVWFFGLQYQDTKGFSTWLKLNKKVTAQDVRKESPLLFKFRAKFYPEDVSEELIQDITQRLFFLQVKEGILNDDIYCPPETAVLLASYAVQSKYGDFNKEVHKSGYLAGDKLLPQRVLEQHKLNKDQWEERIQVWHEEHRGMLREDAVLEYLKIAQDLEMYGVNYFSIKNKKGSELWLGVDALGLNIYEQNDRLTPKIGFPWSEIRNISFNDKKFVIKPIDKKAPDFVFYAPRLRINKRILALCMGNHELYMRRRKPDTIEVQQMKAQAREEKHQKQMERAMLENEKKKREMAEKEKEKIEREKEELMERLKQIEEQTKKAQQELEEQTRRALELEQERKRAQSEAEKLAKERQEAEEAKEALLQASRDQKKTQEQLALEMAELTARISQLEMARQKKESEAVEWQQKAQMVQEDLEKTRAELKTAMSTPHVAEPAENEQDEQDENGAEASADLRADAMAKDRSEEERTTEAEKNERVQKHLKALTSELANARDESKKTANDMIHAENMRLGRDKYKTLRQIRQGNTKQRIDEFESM

binding [1]: binds | binding [2]: binds
B1: FLAG-FBXW2, full length (protein, UniProt Q9UKT8 1-454)
chain: MERKDFETWLDNISVTFLSLTDLQKNETLDHLISLSGAVQLRHLSNNLETLLKRDFLKLLPLELSFYLLKWLDPQTLLTCCLVSKQWNKVISACTEVWQTACKNLGWQIDDSVQDALHWKKVYLKAILRMKQLEDHEAFETSSLIGHSARVYALYYKDGLLCTGSDDLSAKLWDVSTGQCVYGIQTHTCAAVKFDEQKLVTGSFDNTVACWEWSSGARTQHFRGHTGAVFSVDYNDELDILVSGSADFTVKVWALSAGTCLNTLTGHTEWVTKVVLQKCKVKSLLHSPGDYILLSADKYEIKIWPIGREINCKCLKTLSVSEDRSICLQPRLHFDGKYIVCSSALGLYQWDFASYDILRVIKTPEIANLALLGFGDIFALLFDNRYLYIMDLRTESLISRWPLPEYRKSKRGSSFLAGEASWLNGLDGHNDTGLVFATSMPDHSIHLVLWKEHG

Source: paper PMC10517019
